PubChem BioAssay AID504744 – Drosophila RNAi Screening Center – 2011
The screen tested about 23,000 reagents; this is an unselected part of those with a known target gene and a result. Of all reagents, 98 (0.43%) got an active call. 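Only hit calls are given; the phospho-dAkt signals, z-scores and hit direction were not deposited.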 Names joined by + are all predicted targets of the reagent.

- Screen: 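Identify dsRNAs that increase or decrease phospho-dAkt after insulin treatment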 (primary screen)
- Cells: Drosophila Kc167 cells
- Reagent: long dsRNA against Drosophila genes, 250 ng dsRNA per well of a 384-well plate
- Timing: 3 days of knock-down, then overnight serum-free starvation before stimulation
- Treatment: bovine insulin at 387 nM for 10 minutes after 12 h without serum
- Measurement: 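In-cell antibody fluorescence for phospho-dAkt in each well over DNA-dye signal, with log2 residuals expressed as z-scores adjusted for cell count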
- Call rule: 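Hit in the insulin screen when the two-replicate mean z-score is more extreme than plus or minus 2.5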

ps [DRSC15149]: Call = inactive
ps [DRSC15151]: Call = inactive
ps [DRSC15152]: Call = inactive
ps [DRSC16388]: Call = inactive
tin [DRSC17083]: Call = inactive
tin [DRSC22853]: Call = inactive
Ada [DRSC14463]: Call = inactive
CG9628 [DRSC11082]: Call = inactive
Mtk [DRSC07475]: Call = inactive
Cht12 [DRSC03844]: Call = inactive
bgcn [DRSC04062]: Call = inactive
bgcn [DRSC04063]: Call = inactive
CG14662 [DRSC12248]: Call = inactive
CG15515 [DRSC15054]: Call = inactive
RpL17 [DRSC18293]: Call = inactive
NijA [DRSC10637]: Call = inactive
CG12861 [DRSC06201]: Call = inactive
CG12861 [DRSC21960]: Call = inactive
trn [DRSC11407]: Call = inactive
CG9192 [DRSC08639]: Call = inactive
dsd [DRSC13829]: Call = inactive
dsd [DRSC15850]: Call = inactive
Or13a [DRSC20265]: Call = inactive
Fbw5 [DRSC03146]: Call = inactive
CG14022 [DRSC02352]: Call = inactive
CG34210 [DRSC04579]: Call = inactive
CG30380 [DRSC05069]: Call = inactive
Men [DRSC12924]: Call = inactive
Men [DRSC16738]: Call = inactive
Men [DRSC22694]: Call = inactive
Naa35 [DRSC04447]: Call = inactive
Atxn7 [DRSC00726]: Call = inactive
Polr2E [DRSC06100]: Call = inactive

8 of these entries, reformatted:
| gene | amplicon | Call |
| --- | --- | --- |
| bgcn | DRSC04063 | inactive |
| CG14662 | DRSC12248 | inactive |
| CG15515 | DRSC15054 | inactive |
| RpL17 | DRSC18293 | inactive |
| NijA | DRSC10637 | inactive |
| CG12861 | DRSC06201 | inactive |
| CG12861 | DRSC21960 | inactive |
| trn | DRSC11407 | inactive |

Next reagents follow:
CG10237 [DRSC02029]: Call = inactive
Ncoa6 [DRSC02353]: Call = inactive
Nha2 [DRSC14689]: Call = inactive
Nha2 [DRSC15619]: Call = inactive
Nha2 [DRSC15623]: Call = inactive
CG5078 [DRSC11762]: Call = inactive
Zw10 [DRSC18793]: Call = inactive
alpha-PheRS [DRSC18224]: Call = inactive
MAPk-Ak2 [DRSC18678]: Call = inactive
CG2811 [DRSC04318]: Call = inactive
Ho [DRSC14939]: Call = inactive
mdu [DRSC19860]: Call = inactive
Bap170 [DRSC04964]: Call = inactive
Bap170 [DRSC21826]: Call = inactive
Rok [DRSC20277]: Call = inactive
gwl [DRSC16305]: Call = inactive
CG5104 [DRSC11765]: Call = inactive
Npc1a [DRSC03378]: Call = inactive
CG6283 [DRSC16009]: Call = inactive
St3 [DRSC04505]: Call = inactive
mre11 [DRSC03570]: Call = inactive
mre11 [DRSC22628]: Call = inactive
eIF4H2 [DRSC14582]: Call = inactive
CG42514 [DRSC10428]: Call = inactive
CG9961 [DRSC00738]: Call = inactive
CG14646 [DRSC12232]: Call = inactive
CG14646 [DRSC21316]: Call = inactive
TwdlO [DRSC16043]: Call = inactive
Mi-2 + Su(Tpl) [DRSC09640]: Call = inactive
Nup98-96 [DRSC14209]: Call = inactive
Nup98-96 [DRSC14210]: Call = inactive
CG9445 [DRSC05006]: Call = inactive
CG34323 [DRSC18916]: Call = inactive
COX6AL2 + Ir75d [DRSC10081]: Call = inactive
CG34244 [DRSC09304]: Call = inactive
CG12644 (retired record) [DRSC17850]: Call = inactive
SelT [DRSC02732]: Call = inactive
Mur29B [DRSC01018]: Call = inactive
Mur29B [DRSC02376]: Call = inactive
IntS1 [DRSC04343]: Call = inactive
